Amino acid sequences for entries named in this document (tags omitted). A change or cut given only in a name is not applied to a line headed by its entry.
UniProt P63330: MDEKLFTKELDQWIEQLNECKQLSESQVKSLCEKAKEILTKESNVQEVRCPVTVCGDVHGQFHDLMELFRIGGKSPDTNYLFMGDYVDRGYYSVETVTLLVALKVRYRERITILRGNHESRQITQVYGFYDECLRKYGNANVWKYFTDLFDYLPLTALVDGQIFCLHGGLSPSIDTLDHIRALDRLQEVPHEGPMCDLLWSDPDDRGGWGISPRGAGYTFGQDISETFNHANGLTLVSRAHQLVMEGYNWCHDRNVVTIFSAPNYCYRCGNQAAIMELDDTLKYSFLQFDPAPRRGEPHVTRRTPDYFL
UniProt Q02248: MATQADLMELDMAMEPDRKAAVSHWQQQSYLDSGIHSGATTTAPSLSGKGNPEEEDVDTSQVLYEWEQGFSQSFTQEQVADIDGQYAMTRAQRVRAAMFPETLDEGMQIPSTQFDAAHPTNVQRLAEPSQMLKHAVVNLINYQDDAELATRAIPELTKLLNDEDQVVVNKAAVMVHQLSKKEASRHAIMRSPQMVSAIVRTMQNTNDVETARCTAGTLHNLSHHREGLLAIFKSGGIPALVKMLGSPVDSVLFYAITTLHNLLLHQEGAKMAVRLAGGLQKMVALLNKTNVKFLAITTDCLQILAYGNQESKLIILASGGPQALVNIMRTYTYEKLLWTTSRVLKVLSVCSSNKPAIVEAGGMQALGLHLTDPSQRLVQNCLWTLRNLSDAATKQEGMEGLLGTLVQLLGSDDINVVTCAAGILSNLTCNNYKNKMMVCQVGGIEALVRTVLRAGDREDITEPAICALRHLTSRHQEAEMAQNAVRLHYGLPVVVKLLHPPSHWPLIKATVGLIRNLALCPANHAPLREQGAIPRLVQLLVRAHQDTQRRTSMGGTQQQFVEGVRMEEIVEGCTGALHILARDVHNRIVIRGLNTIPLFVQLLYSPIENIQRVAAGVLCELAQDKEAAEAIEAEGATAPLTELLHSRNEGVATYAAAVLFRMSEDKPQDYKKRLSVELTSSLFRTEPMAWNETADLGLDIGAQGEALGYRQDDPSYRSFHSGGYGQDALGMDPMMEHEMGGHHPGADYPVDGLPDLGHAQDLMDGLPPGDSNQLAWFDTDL

In PMC5908793:

Biological target: Protein Phosphatase 2A (PP2A) (UniProt P63330)
Test: co-IP; mES cells, PP2A and β-Catenin, control cells without Ube2s depletion; strategy as for HA-tagged CK1

binding: binds
Substance: β-Catenin, mouse, endogenous (from UniProt Q02248 1-781)

No constants are given. Whether binding was seen depends on the method and setting. In cells and extracts the contact can be indirect. Binding calls can cover weak binding; strength is not graded here.
